Experimental findings from patent EP0362382A1, “METHOD OF STERILIZING PLANT POLLEN” (VSESOJUZNY NAUCHNO-ISSLEDOVATELSKY INST. SELSKOKHOZYAISTV. …, priority 1988, dated 1989) are described below.

This data set has as its system Sonnenblume. Briefly: Field test of chemical sterilisation of sunflower pollen. The class given is in vivo. As to conditions: for Masse von 1000 Achünen in g / Ölgehalt in %: V. Periode der Organogenese. The text has this: Die gametozide Aktivitat der erfindungsgemäßen Sterilisationsmittel war im Feldversuch in verschiedenen bodenklimatischen Zonen mit Teilstücken von 10 m^2 Größe in drei- bis viermaliger Wiederholung festgestellt. Jedes Sterilisationsmittel wurde mindenstens 5 Jahre lang geprüft.
Die Entwicklung der Perioden der Organogenese wird zytologisch überwacht. Die Behandlung von Pflanzen mit dem Sterilisationsmittel erfolgt am Anfang der fünften Periode der Organogenese nach Kupermann.
Zur Kontrolle der chemischen Sterilisation des Sonnenblumenpollens werden für jede Verbindung 45 behandelte Pflanzen jeder Wiederholung benutzt, wobei 15 Pflanzen von denen zwecks Selbsbestäubung isoliert werden, Blütenkorbchen anderer 15 Pflanzen mit einem Pollengemisch, gesammelt von 20 bis 25 behandelten isolierten Körbchen, bestäubt werden, und 15 Pflanzen für freie Bestäubung gelassen werden, damit das Ansetzen von Achänen mit dem Pollen der väterlichen Form kontrolliert werden kann.
Man beurteilt die Pollensterilität von Pflanzen der Sonnenblume nach der Pollenfertilität und -keimfähigkeit, nach den morphologischen Besonderheiten von Spermien und nach der Fähigkeit von Achänen zum Ansetzen bei der Bestäubung der behandelten isolierten Pflanzen mit dem Pollen der unbehandelten väterlichen Form. Die Lebensfähigkeit der Eizelle wird nach der Samenbildung von behandelten Pflanzen bei freier Bestäubung mit der väterlichen Form bestimmt.
Man behandelt die Sonnenblume Sorte BHNNMK 8931 (WNIIMK 8931) in der V. Periode der Organogenese mit 0,5%iger wäßriger Emulsion von 4-Karboxybutyldezylsulfid, mit 1%iger Emulsion der δ, δ' -Sulfonyldivaleriansäure, 2%iger Emulsion von Bis(2-äthylhexyläther) der δ, δ' -Thiodivaleriansäure; die Sonnenblume der Linie BK-373 (WK-373) mit 2%iger Emulsion von Bis(2-äthylhexyläther) der δ δ' --Thiodivaleriansäure, mit 0,2%iger Emulsion von Bis(di--n-butyläther) der δ, δ' -Thiodivaleriansäure; die Sonnenblume der Linie BK=364 (WK-365) mit 2%iger wäßriger Emulsion von Bis(2-äthylhexyläther) der δ, δ' -Thirodivaleriansäure, mit 0,2%iger Emulsion von Bis(di-n-butyläther) der δ, δ' -Thiodivaleriansäure. Die Emulsion enthält 0,1 Masse% Kalziumalkylbenzolsulfonat mit 12 bis 14 Kohlenstoffatomen und 0,01 Masse% Dimethylsulfoxid. Als Kontrolle dienen Pflanzen, behandelt mit einem Verdünner ohne Sterilisationsmittel. Die Prüfergebnisse sind in der Tabelle 17 angegeben. […] Periode der Organogenese erhalten.

Where [1] appears, read: Sorte ВНИИМК 8931 (WNIIMK 8931), Beispiel 75: 0,5%ige, 76: 1%ige, 77: 2%ige Emulsion.
Setting [2] is: Linie BK-373 (WK-373), Beispiel 78: 2%ige, 79: 0,2%ige Emulsion.
[3] abbreviates: Linie BK-364 (WK-364), Beispiel 80: 2%ige, 81: 0,2%ige Emulsion.
The mark [4] stands for this setting: Sorte ВНИИМК 8931 (WNIIMK 8931), Verbrauch je ha in kg/600 l: Beispiel 82: 3,0, 83: 6,0, 84: 12,0.
Where [5] appears, read: Linie BK-373 (WK-373), Verbrauch je ha in kg/600 l: Beispiel 85: 12,0, 86: 1,2.
[6] abbreviates: Linie BK-364 (WK-364), Verbrauch je ha in kg/600 l: Beispiel 87: 12,0, 88: 1,2.

For `CCCCCCCCCCSCCCCC(=O)O` [Beispiel 75, 4-Karboxybutyldezylsulfid], under setting [1], the “Masse von 1000 Achünen in g” value is recorded as 78,0 g and the Ölgehalt in % is 52,5%. The matching figures for `O=C(O)CCCCS(=O)(=O)CCCCC(=O)O` [Beispiel 76, δ, δ' -Sulfonyldivaleriansäure]: 85,5 g and 53,6%. For the compound `CCCCC(CC)COC(=O)CCCCSCCCCC(=O)OCC(CC)CCCC` (stereo not drawn) [Beispiel 77, Bis(2-äthylhexyläther) der δ, δ' -Thiodivaleriansäure], under setting [1], the “Masse von 1000 Achünen in g” value is listed as 91,9 g and the Ölgehalt in % is on record as 53,9%.

Consider `CCCCC(CC)COC(=O)CCCCSCCCCC(=O)OCC(CC)CCCC` (stereo not drawn) [Beispiel 78, Bis(2-äthylhexyläther) der δ δ' --Thiodivaleriansäure], for which, under setting [2], the “Masse von 1000 Achünen in g” value is reported as 54,5 g and the Ölgehalt in % is given as 48,1%. The matching figures for `CCCCOC(=O)CCCCSCCCCC(=O)OCCCC` [Beispiel 79, Bis(di--n-butyläther) der δ, δ' -Thiodivaleriansäure]: 57,2 g and 49,2%.

With `CCCCC(CC)COC(=O)CCCCSCCCCC(=O)OCC(CC)CCCC` (stereo not drawn) [Beispiel 80, Bis(2-äthylhexyläther) der δ, δ' -Thirodivaleriansäure], under setting [3], the “Masse von 1000 Achünen in g” value is given as 87,0 g and the Ölgehalt in % was 45,5%.

`CCCCOC(=O)CCCCSCCCCC(=O)OCCCC` [Beispiel 81, Bis(di-n-butyläther) der δ, δ' -Thiodivaleriansäure]: under setting [3], the “Masse von 1000 Achünen in g” value was 87,1 g and the Ölgehalt in % is given as 44,5%.

`CCCCCCCCCCSCCCCC(=O)O` [Beispiel 82, 4-Karboxybutyldezylsulfid]: the Keimfähigkeit in % under setting [4] was 100,0%. Turning to `O=C(O)CCCCS(=O)(=O)CCCCC(=O)O` [Beispiel 83, δ, δ' -Sulfonyldivaleriansäure], the Keimfähigkeit in % under setting [4] is reported as 100,0%.

Turning to `CCCCC(CC)COC(=O)CCCCSCCCCC(=O)OCC(CC)CCCC` (stereo not drawn) [Beispiel 84, Bis(2-äthylhexyläther) der δ, δ' -Thiodivaleriansäure], the Keimfähigkeit in % under setting [4] is 100,0%. As for `CCCCC(CC)COC(=O)CCCCSCCCCC(=O)OCC(CC)CCCC` (stereo not drawn) [Beispiel 85, Bis(2-äthylhexyläther) der δ δ' --Thiodivaleriansäure], the Keimfähigkeit in % under setting [5] is listed as 100,0%. The same measure, in the same setting: the same measure for `CCCCOC(=O)CCCCSCCCCC(=O)OCCCC` [Beispiel 86, Bis(di--n-butyläther) der δ, δ' -Thiodivaleriansäure]: 100,0%. For `CCCCC(CC)COC(=O)CCCCSCCCCC(=O)OCC(CC)CCCC` (stereo not drawn) [Beispiel 87, Bis(2-äthylhexyläther) der δ, δ' -Thirodivaleriansäure], under setting [6], the Keimfähigkeit in % is recorded as 100,0%. On the same count and under the same terms, under `CCCCOC(=O)CCCCSCCCCC(=O)OCCCC` [Beispiel 88, Bis(di-n-butyläther) der δ, δ' -Thiodivaleriansäure] stands 100,0%.
